Results on 25 compounds are retold here after the supplement of paper PMC8326762, “A Small Molecule Inhibitor of Pex3–Pex19 Interaction Disrupts Glycosome Biogenesis and Causes Lethality in Trypanosoma brucei” (Frontiers in Cell and Developmental Biology, 2021).

Assay [1] relates to Saccharomyces cerevisiae HF7c pdr5Δ. Kind of assay: general growth inhibition of yeast HF7c pdr5Δ in -Leu -Trp medium, relative to DMSO; higher = stronger general growth inhibition. Conditions: 100 µM; 24 h.
Assay [2] has as its system human PEX3-PEX19 interaction (yeast two-hybrid). Kind of assay: growth inhibition of yeast two-hybrid strain reporting HsPex3-HsPex19 interaction, relative to DMSO; higher = stronger inhibition of human Pex3-Pex19 interaction / growth. Conditions: 100 µM; 24 h; 3-aminotriazole 10 mM.
Assay [3] deals with T. brucei Pex3-Pex19 interaction (yeast two-hybrid). Kind of assay: growth inhibition of yeast two-hybrid strain reporting TbPex3-TbPex19 interaction, relative to DMSO; higher = stronger inhibition of T. brucei Pex3-Pex19 interaction / growth. Conditions: 100 µM; 24 h.

Counter-ions that a name gives are not always drawn. This is one part of the list. This is a noisy data set.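 Yeast growth was measured as optical density at 600 nm. Two-hybrid strains grew without histidine, so growth depended on Pex3–Pex19 binding. A compound was trypanosome-selective if it reduced growth of the trypanosome-pair strain by over 65% and of the human-pair strain by under 65%.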

`Cn1c(=O)c2[nH]cnc2n(C)c1=O` [Aminophylline ethylenediamine]: the general growth inhibition in assay [1] stood at 38.6%. In addition, the growth inhibition in assay [2] worked out at 28.3%; in assay [3], 60.7%.
For `N=C(N)c1ccc(OCCCCCOc2ccc(C(=N)N)cc2)cc1` [Pentamidine isethionate], the general growth inhibition in assay [1] worked out at 50.5%. Also, the growth inhibition amounted to 47.4% in assay [2] and 67.4% in assay [3].
`O=C1N(c2ccccc2)c2ccccc2C1(Cc1ccncc1)Cc1ccncc1` [Linopirdine] yielded a general growth inhibition in assay [1] of 44.9%. Moreover, the growth inhibition in assay [2] is 43.5%; in assay [3] it was 59.6%.
The corresponding values for `CN(C)CCOC(C)(c1ccccc1)c1ccccn1` (stereo not given) [Doxylamine succinate] are 39.5%, 42% and 67.6%.
On to `Cc1nc(C#Cc2cccnc2)cs1` [MTEP hydrochloride], for which, in assay [1], the general growth inhibition stood at 44.3%. For the same compound, the growth inhibition is 51% in assay [2] and 61.7% in assay [3].
For `COc1ccc(/C=C2\COc3ccc(C)cc3C2=O)cc1O` the same measures were 32%, 30.2% and 28.2%.
The compound `COCc1nc2c([nH]1)c(=O)n(C)c(=O)n2CC(C)C` [8-Methoxymethyl-3-isobutyl-1-methylxanthine] gave a general growth inhibition in assay [1] of 53.5%. Moreover, the growth inhibition in assay [2] was 46.1%; in assay [3], 66.6%.
The corresponding values for `Cc1nc2c([nH]1)c(=O)n(C)c(=O)n2Cc1ccco1` [Furafylline] are 37.7%, 44.2% and 65.4%.
The corresponding values for `O=C(O)Cc1ccc(O)c(O)c1` [3,4-Dihydroxyphenylacetic acid] are 32.5%, 39.9% and 57.1%.
For `C[C@H]1C[C@H]2[C@@H]3CCC4=CC(=O)C=C[C@]4(C)[C@@]3(Cl)[C@@H](O)C[C@]2(C)[C@@]1(O)C(=O)CO` [Beclomethasone] the same measures were 22.5%, 26.8% and 52%.
In assay [1], `N[C@@H]1[C@H]2CN(c3nc4c(cc3F)c(=O)c(C(=O)O)cn4-c3ccc(F)cc3F)C[C@@H]12` [Trovafloxacin mesylate] had a general growth inhibition of 47.6%. For the same compound, the results for the growth inhibition in assay [2] and in assay [3] were 39.5% and 63%, respectively.
For `COc1ccc(C(=O)NCc2cccnc2)cc1C(=O)NCc1cccnc1` [Picotamide] the same measures were 54%, 50.9% and 68.6%.
Compound `Nc1nnc(-c2cccc(Cl)c2Cl)c(N)n1` [Lamotrigine] returned a general growth inhibition in assay [1] of 47.3%. Further, the growth inhibition in assay [2] was 46.3%; in assay [3], 69.7%.
In assay [1], `NC(CCCP(=O)(O)O)C(=O)O` (racemic) [(±)-2-Amino-5-phosphonopentanoic acid] showed a general growth inhibition of 45.6%. In addition, the figures for the growth inhibition in assay [2] and in assay [3] were 39.9% and 57.1%, respectively.
`Nc1nc(N)c2nc(CNc3ccc(C(=O)N[C@@H](CCC(=O)O)C(=O)O)cc3)cnc2n1` [Aminopterin] had a general growth inhibition in assay [1] of 43.8%. For the same compound, the values for the growth inhibition in assay [2] and in assay [3] were 44.7% and 64.9%, respectively.
For `N=C(N)NCCCCN` [Agmatine sulfate] the same measures were 47.4%, 46.6% and 61.7%.
Consider `CN(C)c1nc(N(C)C)nc(N(C)C)n1` [Altretamine], for which the general growth inhibition in assay [1] came to 8.34%. For the same compound, the growth inhibition in assay [2] is 10.9%; in assay [3] it was 30.7%.
The corresponding values for `COc1ccccc1OCCNCC(O)COc1cccc2[nH]c3ccccc3c12` (stereo not given) [Carvedilol] are 22.7%, 41.5% and 50%.
The corresponding values for `CC(C)=CCC/C(C)=C/COc1ccc2ccc(=O)oc2c1` [Auraptene] are 21.9%, 26.1% and 51.6%.
`CC1=C(/C=C/C(C)=C/C=C/C(C)=C/C(=O)O)C(C)(C)CCC1` [Retinoic acid] yielded a general growth inhibition in assay [1] of 49.6%. The growth inhibition in assay [2] was 34.2%; in assay [3], 52.2%.
The corresponding values for `CCN(CC)CCNC(=O)c1cc(Cl)c(N)cc1OC` [Metoclopramide hydrochloride] are 42%, 44.1% and 66.1%.
`O=C(O)C1CCNCC1` [Isonipecotic acid] had a general growth inhibition in assay [1] of 47.5%. Besides, the results for the growth inhibition in assay [2] and in assay [3] were 44.7% and 66.8%, respectively.
The corresponding values for `O=C(C1CCCCC1)N1CC(=O)N2CCc3ccccc3C2C1` (stereo not given) [Praziquantel] are 48.2%, 47.9% and 67%.
The corresponding values for `CCN(CC)CCn1c(=O)c(Cc2ccc(OC)cc2)nc2ccccc21` [Caroverine hydrochloride] are 51.5%, 45.6% and 59.3%.
For `N=C(N)c1ccccc1` [Benzamidine hydrochloride] the same measures were 27.3%, 45.1% and 67.2%.
